## Library compounds against nucleic acid targets

Source: the ROBIN nucleic acid binder screens (doi:10.1002/anie.202211358).

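Each compound is printed as two spots on a slide made to bind it covalently, so it has no test concentration; the read-out is fluorescence of the bound, labelled oligonucleotide. For the PreQ1, TPP and SAM-II riboswitches the laboratory earlier reported (doi:10.1038/s41467-019-09493-3) 1 µM RNA, 2 h, and a rule that included a mean Z-score above 3 (spot signal-to-noise against the whole library), a score well above that on a control array, and duplicate spots agreeing (coefficient of variation under 100). The data file gives only the calls; its cut-offs may differ, and compounds hitting several targets are kept. A missing hit is not proof of no binding, and a hit is not a measured affinity.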
“yes” means called a hit, “no” means screened and not called a hit.
This is an unselected part of the compounds tested.
A target missing from an entry has no call listed here.
A dash means that no call is listed here.

Targets (5′ to 3′):
T1: SAM-II riboswitch RNA pseudoknot, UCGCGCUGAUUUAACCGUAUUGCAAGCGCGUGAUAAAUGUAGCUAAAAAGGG. Hit rate about 1% of about 21,000 compounds.
T2: TPP riboswitch RNA three-way junction, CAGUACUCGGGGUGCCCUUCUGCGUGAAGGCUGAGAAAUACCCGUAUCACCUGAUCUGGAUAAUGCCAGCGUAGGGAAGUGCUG. Hit rate about 0.7% of about 24,000 compounds.
T3: PreQ1 riboswitch RNA pseudoknot, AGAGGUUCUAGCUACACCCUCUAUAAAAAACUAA. From B. subtilis. Hit rate about 0.7% of about 24,000 compounds.

Compound: OCC(CNC1CCCC1)Cc1cccs1 (centres undefined)
T1: no
T2: no
T3: no

Compound: CCc1cc(Nc2ccc(C)cc2C)n2ncnc2n1
T1: no
T2: no
T3: no

Compound: CCC(CO)NCc1ccc(-c2cccc(Cl)c2)o1 (centres undefined)
T2: no
T3: no

Compound: Cc1ccccc1-c1cccc(C(=O)N2CCC(O)(CO)CC2)c1
T1: no
T2: no
T3: no

Compound: Cc1cc(C(=O)N2CCCC(Nc3ccc4c(c3)OCCO4)C2)c(=O)[nH]c1C (centres undefined)
T1: no
T2: no
T3: no

Compound: COCc1cc(CN(C)C(=O)C2CC23CCNCC3)n[nH]1 (centres undefined)
T1: no
T2: no
T3: no

Compound: Cn1cc(-c2cnn3c(N)c(Br)c([C@H]4CCCNC4)nc23)cn1
T1: no
T2: no
T3: no

Compound: CN(Cc1csc(-c2ccccc2)n1)C(=O)CCc1n[nH]c(N)n1
T1: no
T2: no
T3: no

Compound: Cc1c(Cc2ccccc2)[n+]([O-])c2ccccc2[n+]1[O-]
T1: no
T2: no
T3: no

Compound: Cc1ccc(NC(CNS(=O)(=O)c2ccc(C)cc2)c2ccccc2)cc1 (centres undefined)
T2: no
T3: no

Compound: COc1ccc(S(=O)(=O)n2nc(-c3ccc(C(C)(C)C)cc3)cc2N)cc1
T1: no
T2: no
T3: no

Compound: O=C(NCc1nnc2n1CCC2)c1cn(CCC2CCCCN2)nn1 (centres undefined)
T1: no
T2: no
T3: no

Compound: Cc1[nH]c2ccccc2c1CCNCc1ccc(F)cc1F
T1: no
T2: no
T3: no

Compound: CC1OC(Nc2cc(C(=O)O)cc([N+](=O)[O-])c2)C(O)C(O)C1O (centres undefined)
T1: no
T2: no
T3: no

Compound: O=C([C@@H]1CNC[C@H](C(=O)N2CCC(c3ccncn3)CC2)C1)N1CCCC1
T1: no
T2: no
T3: no

Compound: CCn1c(N)nc2cc(C(=O)N3CCN(CCn4cncn4)CC3)cnc21
T1: no
T2: no
T3: no

Compound: Cc1noc(C)c1CCCNC(=O)c1ccc(C2CCCNC2)cc1 (centres undefined)
T1: no
T2: no
T3: no

Compound: CN(C)c1ccc(C(=O)N2CCC3(CCCN(CCO)C3=O)C2)cn1 (centres undefined)
T1: no
T2: no
T3: no

Compound: CC(C)c1noc(CN2CCCC3(CCC(=O)N(CCCO)C3)C2)n1 (centres undefined)
T1: no
T2: no
T3: no

Compound: CCc1nc(C)c([C@H]2CN(C)C[C@@H]2C(=O)NCc2c(C)ncc3c2CCNC3)[nH]1
T1: no
T2: no
T3: no

Compound: O=S(=O)(c1cccc2cnccc12)N1CCCNCC1
T1: no
T2: no
T3: no

Compound: COC(c1ccccc1)(c1ccccc1)[C@H](Oc1nc(C)cc(C)n1)C(=O)O
T1: no
T2: no
T3: no

Compound: O=C(c1cc2cc(Br)ccc2oc1=O)N1CCN(CCO)CC1
T1: no
T2: no
T3: no

Compound: Cc1cc(C)n(-c2nc(C)nc(N)n2)n1
T1: no
T2: no
T3: no

Compound: Cc1ccc2nc(C(=O)O)cc(Nc3cccc(F)c3)c2c1
T1: no
T2: no
T3: no

Compound: COc1ccc(CCNc2ncc3c(n2)CC(c2cccs2)CC3=O)cc1 (centres undefined)
T1: no
T2: no
T3: no

Compound: CSc1nc(NCCN(C)C)c(C#N)c(-c2ccc(Cl)cc2)n1
T2: no
T3: no

Compound: c1ccc(CCNc2ncnc3scc(C4COc5ccccc5O4)c23)cc1 (centres undefined)
T1: no
T2: no
T3: no

Compound: CC(C)CNc1ccnc(NCc2csc(-c3ccccc3)n2)n1
T1: no
T2: no
T3: no

Compound: CCOC(=O)c1cnc2c(C)cc(C)cc2c1NCCCN(C)C
T1: no
T2: no
T3: no

Compound: CC(=O)c1ccc(NC(=O)c2sc3nc(N4CCCC4)c4c(c3c2N)CCCC4)cc1
T2: no
T3: no

Compound: CC(C)OCCCNc1nc2c([nH]1)c(=O)n(C)c(=O)n2C
T1: no
T2: no
T3: no

Compound: C#CCN1C(=O)C2(C(C#N)=C(N)OC(C)=C2C(=O)OCCOC)c2ccccc21 (centres undefined)
T1: no
T2: no
T3: no

Compound: C=CCN1C(=O)C2(C(C#N)=C(N)Oc3c2c(=O)oc2ccccc32)c2ccccc21 (centres undefined)
T1: no
T2: no
T3: no

Compound: CN(CC1CCCCO1)c1cc(NC2CC2)nc(N)n1 (centres undefined)
T1: no
T2: no
T3: no

Compound: Cn1c(=O)n(C)c2cc(CNc3ccc(C(=O)O)c(Cl)c3)ccc21
T2: no
T3: no

Compound: N[C@H]1C[C@@H](C(=O)O)N(C(=O)c2ccc(OC(F)F)cc2)C1
T1: no
T2: no
T3: no

Compound: Cc1cc(/C=C2\SC(=S)NC2=O)cc(C)c1O
T1: no
T2: no
T3: no

Compound: CCCOC(=O)c1ccc(Nc2cc(C)ncn2)cc1
T2: no
T3: no

Compound: CN(C)S(=O)(=O)c1ccc(-c2nc(C#N)c(NC3CCCCC3)o2)cc1
T2: no
T3: no

Compound: COc1cccc(CNc2nc3nc(C)c(Cl)c(C)n3n2)c1
T2: no
T3: no

Compound: CCOC(=O)c1ccc(Nc2c3c(nc4ccccc24)CCC3)cc1
T1: no
T2: no
T3: no

Some entries from above, unchanged:

Compound,T1,T2,T3
CCc1nc(C)c([C@H]2CN(C)C[C@@H]2C(=O)NCc2c(C)ncc3c2CCNC3)[nH]1,no,no,no
O=C(NCc1nnc2n1CCC2)c1cn(CCC2CCCCN2)nn1 (centres undefined),no,no,no
CSc1nc(NCCN(C)C)c(C#N)c(-c2ccc(Cl)cc2)n1,-,no,no
CC(C)CNc1ccnc(NCc2csc(-c3ccccc3)n2)n1,no,no,no